Measurements published in patent US6815208B2, “Chemical treatment for hydrostatic test” (Champion Technologies, Inc., priority 2001, dated 2004).

Tested on: Sulfate Reducing Bacteria (SRB)
Assay: Evaluation of biocides in pH adjusted medium containing SRB, with coupons
Format: cell-based
Procedure: In these experiments, SRB or FAAPB cultures were treated with various concentrations of biocides, after raising the pH to 9.8-10.00. The bacterial growth in the treated samples was estimated by the serial dilution method. The visual appearance of coupons in treated and untreated samples was recorded. An aldehyde and phosphonium quat were used for biocides.

Row | Molecule | Observation of Coupon (Concentration 18.75) | Observation of Coupon (Concentration 37.5) | Observation of Coupon (Concentration 112.5) | Observation of Coupon (Concentration 12.5) | Observation of Coupon (Concentration 25) | Observation of Coupon (Concentration 75) | Observation of Coupon (Concentration 150)
1 | tetrakis hydroxymethyl phosphonium sulfate [THPS] | Black patches | Few black spots | Clean |  |  |  | 
2 | O=CCCCC=O [Glutaraldehyde, glutaraldehyde] |  |  |  | Black patches | Small black spots observed | Clean | Clean
